# Data taken from patent US7767669B2, “Small molecule PI 3-kinase inhibitors and methods of their use” (Novartis AG, priority 2002, dated 2010).
# Some results were stated once for a whole list of compounds, not compound by compound.
# Target: PI3 kinase
# Assay: PI3K one step solid phase assay (Method 2)
# Format: biochemical
# Conditions: read-out: IC50 value with respect to PI3K
row,SMILES,IC50 [µM]
1,"CCCCOc1ccc(Nc2cc(-c3cccc(O)c3)nc(N3CCOCC3)n2)cc1 [Example 65, 3-{6-[(4-butoxyphenyl)amino]-2-morpholin-4-ylpyrimidin-4-yl}phenol]",< 20
2,"COc1cccc(Nc2cc(-c3cccc(O)c3)nc(N3CCOCC3)n2)c1 [Example 98, 3-{6-[(3-methoxyphenyl)amino]-2-morpholin-4-ylpyrimidin-4-yl}phenol]",< 20
3,"COc1ccc(Nc2cc(-c3cccc(O)c3)nc(N3CCOCC3)n2)cc1 [Example 99, 3-{6-[(4-methoxyphenyl)amino]-2-morpholin-4-ylpyrimidin-4-yl}phenol]",< 20
4,"COc1ccc(Nc2cc(-c3cccc(O)c3)nc(N3CCOCC3)n2)c(OC)c1 [Example 100, 3-{6-[(2,4-dimethoxyphenyl)amino]-2-morpholin-4-ylpyrimidin-4-yl}phenol]",< 20
5,"COc1ccc(OC)c(Nc2cc(-c3cccc(O)c3)nc(N3CCOCC3)n2)c1 [Example 101, 3-{6-[(2,5-dimethoxyphenyl)amino]-2-morpholin-4-ylpyrimidin-4-yl}phenol]",< 20
6,"COc1cccc(Nc2cc(-c3cccc(O)c3)nc(N3CCOCC3)n2)c1OC [Example 102, 3-{6-[(2,3-dimethoxyphenyl)amino]-2-morpholin-4-ylpyrimidin-4-yl}phenol]",< 20
7,"CCOc1ccccc1Nc1cc(-c2cccc(O)c2)nc(N2CCOCC2)n1 [Example 103, 3-{6-[(2-ethoxyphenyl)amino]-2-morpholin-4-ylpyrimidin-4-yl}phenol]",< 20
8,"CCOc1ccc(Nc2cc(-c3cccc(O)c3)nc(N3CCOCC3)n2)cc1 [Example 104, 3-{6-[(4-ethoxyphenyl)amino]-2-morpholin-4-ylpyrimidin-4-yl}phenol]",< 20
9,"CCOc1ccc(OCC)c(Nc2cc(-c3cccc(O)c3)nc(N3CCOCC3)n2)c1 [Example 105, 3-{6-[(2,5-diethoxyphenyl)amino]-2-morpholin-4-ylpyrimidin-4-yl}phenol]",< 20
10,"COc1cccc(C)c1Nc1cc(-c2cccc(O)c2)nc(N2CCOCC2)n1 [Example 106, 3-{6-[(2-methoxy-6-methylphenyl)amino]-2-morpholin-4-ylpyrimidin-4-yl}phenol]",< 20
11,"Oc1cccc(-c2cc(Nc3cccc(Oc4ccccc4)c3)nc(N3CCOCC3)n2)c1 [Example 107, 3-{2-morpholin-4-yl-6-[(3-phenoxyphenyl)amino]pyrimidin-4-yl}phenol]",< 20
12,"Oc1cccc(-c2cc(Nc3ccc(Oc4ccccc4)cc3)nc(N3CCOCC3)n2)c1 [Example 108, 3-{2-morpholin-4-yl-6-[(4-phenoxyphenyl)amino]pyrimidin-4-yl}phenol]",< 20
13,"Oc1cccc(-c2cc(Nc3cccc(OCc4ccccc4)c3)nc(N3CCOCC3)n2)c1 [Example 109, 3-(6-{[3-(benzyloxy)phenyl]amino}-2-morpholin-4-ylpyrimidin-4-yl)phenol]",< 20
14,"COc1c(Nc2cc(-c3cccc(O)c3)nc(N3CCOCC3)n2)ccc2c1oc1ccccc12 [Example 110, 3-{6-[(4-methoxydibenzo[b,d]furan-3-yl)amino]-2-morpholin-4-ylpyrimidin-4-yl}phenol]",< 20
15,"Oc1cccc(-c2cc(Nc3ccccc3O)nc(N3CCOCC3)n2)c1 [Example 111, 2-{[6-(3-hydroxyphenyl)-2-morpholin-4-ylpyrimidin-4-yl]amino}phenol]",< 20
16,"Oc1cccc(Nc2cc(-c3cccc(O)c3)nc(N3CCOCC3)n2)c1 [Example 112, 3-{6-[(3-hydroxyphenyl)amino]-2-morpholin-4-ylpyrimidin-4-yl}phenol]",< 20
17,"Oc1ccc(Nc2cc(-c3cccc(O)c3)nc(N3CCOCC3)n2)cc1 [Example 113, 3-{6-[(4-hydroxyphenyl)amino]-2-morpholin-4-ylpyrimidin-4-yl}phenol]",< 20
18,"Oc1cccc(-c2cc(Nc3cc(Cl)ccc3O)nc(N3CCOCC3)n2)c1 [Example 114, 4-chloro-2-{[6-(3-hydroxyphenyl)-2-morpholin-4-ylpyrimidin-4-yl]amino}phenol]",< 20

# The remaining lines, values ahead:
row,IC50 [µM],SMILES
1,< 20,"Fc1cccc(-c2cc(Nc3ccc4[nH]ncc4c3)nc(N3CCOCC3)n2)c1 [Example 21, N-[6-(3-fluorophenyl)-2-morpholin-4-ylpyrimidin-4-yl]-1H-indazol-5-amine]"
2,< 20,"Fc1ccccc1-c1cc(Nc2ccc3[nH]ncc3c2)nc(N2CCOCC2)n1 [Example 23, N-[6-(2-fluorophenyl)-2-morpholin-4-ylpyrimidin-4-yl]-1H-indazol-5-amine]"
3,< 20,"Cc1ccc(CN(Cc2ccccn2)c2cc(-c3cccc(O)c3)nc(N3CCOCC3)n2)cc1 [Example 56, 3-{6-[(4-methylbenzyl)(pyridin-2-ylmethyl)amino]-2-morpholin-4-ylpyrimidin-4-yl}phenol]"
4,< 20,"Oc1cccc(-c2cc(N(Cc3ccccc3)Cc3ccccc3)nc(N3CCOCC3)n2)c1 [Example 60, 3-[6-(dibenzylamino)-2-morpholin-4-ylpyrimidin-4-yl]phenol]"
5,< 20,"COC(=O)c1cccc(-c2cc(Nc3ccc4[nH]ncc4c3)nc(N3CCOCC3)n2)c1 [Example 70, methyl 3-[6-(1H-indazol-5-ylamino)-2-morpholin-4-ylpyrimidin-4-yl]benzoate]"
6,< 20,"NC1CCCC(Nc2cc(-c3cccc(O)c3)nc(N3CCOCC3)n2)C1 (centres unmarked) [Example 77, 3-{6-[(3-aminocyclohexyl)amino]-2-morpholin-4-ylpyrimidin-4-yl}phenol]"
7,< 20,"N[C@@H]1CCCC[C@H]1Nc1cc(-c2cccc(O)c2)nc(N2CCOCC2)n1 [Example 78, 3-(6-{[(1R,2R)-2-aminocyclohexyl]amino}-2-morpholin-4-ylpyrimidin-4-yl)phenol]"
8,< 20,"Oc1cccc(-c2cc(N3CCC(O)CC3)nc(N3CCOCC3)n2)c1 [Example 80, 1-[6-(3-hydroxyphenyl)-2-morpholin-4-ylpyrimidin-4-yl]piperidin-4-ol]"
9,< 20,"Oc1cccc(-c2cc(N3CCN(c4cccc(Cl)c4)CC3)nc(N3CCOCC3)n2)c1 [Example 83, 3-{6-[4-(3-chlorophenyl)piperazin-1-yl]-2-morpholin-4-ylpyrimidin-4-yl}phenol]"
10,< 20,"Oc1cccc(-c2cc(N3CCN(Cc4ccc5c(c4)OCO5)CC3)nc(N3CCOCC3)n2)c1 [Example 84, 3-{6-[4-(1,3-benzodioxol-5-ylmethyl)piperazin-1-yl]-2-morpholin-4-ylpyrimidin-4-yl}phenol]"
11,< 20,"CN1CCCN(c2cc(-c3cccc(O)c3)nc(N3CCOCC3)n2)CC1 [Example 88, 3-[6-(4-methyl-1,4-diazepan-1-yl)-2-morpholin-4-ylpyrimidin-4-yl]phenol]"
12,< 20,"Oc1cccc(-c2cc(NCCCn3ccnc3)nc(N3CCOCC3)n2)c1 [Example 94, 3-(6-{[3-(1H-imidazol-1-yl)propyl]amino}-2-morpholin-4-ylpyrimidin-4-yl)phenol]"
13,< 20,"Cc1ccc(CN(Cc2cccnc2)c2cc(-c3cccc(O)c3)nc(N3CCOCC3)n2)cc1 [Example 95, 3-{6-[(4-methylbenzyl)(pyridin-3-ylmethyl)amino]-2-morpholin-4-ylpyrimidin-4-yl}phenol]"
14,< 20,"COc1ccccc1Nc1cc(-c2cccc(O)c2)nc(N2CCOCC2)n1 [Example 97, 3-{6-[(2-methoxyphenyl)amino]-2-morpholin-4-ylpyrimidin-4-yl}phenol]"
